From article PMC5484104
These are yes or no findings as the source states them, for the method shown. In cells and extracts the contact can be indirect. Some entries that bind do so weakly or less than the wild type.

Sequences of proteins named here, by UniProt entry; tags and fusion partners are left off.
UniProt P11802: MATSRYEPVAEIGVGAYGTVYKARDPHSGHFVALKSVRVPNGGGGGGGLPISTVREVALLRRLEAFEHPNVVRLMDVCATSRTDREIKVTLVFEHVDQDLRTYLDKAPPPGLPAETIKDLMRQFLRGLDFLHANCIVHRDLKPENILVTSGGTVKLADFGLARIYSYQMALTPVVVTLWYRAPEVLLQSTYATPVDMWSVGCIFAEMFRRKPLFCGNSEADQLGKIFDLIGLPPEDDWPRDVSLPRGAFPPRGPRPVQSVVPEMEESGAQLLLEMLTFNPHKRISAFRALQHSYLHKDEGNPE
UniProt P38936: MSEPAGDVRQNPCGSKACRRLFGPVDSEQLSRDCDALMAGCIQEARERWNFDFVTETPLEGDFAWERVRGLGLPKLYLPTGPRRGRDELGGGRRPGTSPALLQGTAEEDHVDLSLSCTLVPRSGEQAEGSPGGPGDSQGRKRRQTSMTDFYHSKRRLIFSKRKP
UniProt P46527: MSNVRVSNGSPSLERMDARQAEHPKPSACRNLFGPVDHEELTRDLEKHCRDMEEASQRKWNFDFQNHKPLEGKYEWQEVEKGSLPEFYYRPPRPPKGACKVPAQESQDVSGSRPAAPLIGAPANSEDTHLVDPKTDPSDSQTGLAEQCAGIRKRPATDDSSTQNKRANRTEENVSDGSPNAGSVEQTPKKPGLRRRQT

What was measured:
[1] = molecular target: cyclin-dependent kinase CDK4 (human (endogenous in HCT116)) (UniProt P11802); experiment: condition: only untreated control cells (without fucoidan); co-IP; untreated control p53+/+ and p53−/− HCT116 cells (no fucoidan); 500 μg total cell lysate immunoprecipitated with anti-CDK2 or anti-CDK4 antibodies, blot probed with anti-p21 or anti-p27
[2] = molecular target: cyclin-dependent kinase CDK4 (human (endogenous in HCT116)) (UniProt P11802); experiment: co-IP; p53+/+ and p53−/− HCT116 cells treated with 150 μg/mL fucoidan for 24 h; 500 μg total cell lysate immunoprecipitated with anti-CDK2 or anti-CDK4 antibodies (6 h, 4 °C, protein A-Sepharose), blot probed with anti-p21 or anti-p27

binding [1] | binding [2] | Substance
no binding | – | p21WAF1/CIP1 (from UniProt P38936 1-164)
no binding | binds | p27KIP1 (from UniProt P46527 1-198)
